# The supplement of paper PMC12067093, “Discovery and optimisation of a covalent ligand for TRIM25 and its application to targeted protein ubiquitination” (Chemical Science, 2025)
# The chains behind the UniProt entries cited, without tags or fusion partners. Where a name states a change or a piece, a line headed by the entry shows the natural chain unless it says otherwise.
# UniProt O75150, whole entry, looked up: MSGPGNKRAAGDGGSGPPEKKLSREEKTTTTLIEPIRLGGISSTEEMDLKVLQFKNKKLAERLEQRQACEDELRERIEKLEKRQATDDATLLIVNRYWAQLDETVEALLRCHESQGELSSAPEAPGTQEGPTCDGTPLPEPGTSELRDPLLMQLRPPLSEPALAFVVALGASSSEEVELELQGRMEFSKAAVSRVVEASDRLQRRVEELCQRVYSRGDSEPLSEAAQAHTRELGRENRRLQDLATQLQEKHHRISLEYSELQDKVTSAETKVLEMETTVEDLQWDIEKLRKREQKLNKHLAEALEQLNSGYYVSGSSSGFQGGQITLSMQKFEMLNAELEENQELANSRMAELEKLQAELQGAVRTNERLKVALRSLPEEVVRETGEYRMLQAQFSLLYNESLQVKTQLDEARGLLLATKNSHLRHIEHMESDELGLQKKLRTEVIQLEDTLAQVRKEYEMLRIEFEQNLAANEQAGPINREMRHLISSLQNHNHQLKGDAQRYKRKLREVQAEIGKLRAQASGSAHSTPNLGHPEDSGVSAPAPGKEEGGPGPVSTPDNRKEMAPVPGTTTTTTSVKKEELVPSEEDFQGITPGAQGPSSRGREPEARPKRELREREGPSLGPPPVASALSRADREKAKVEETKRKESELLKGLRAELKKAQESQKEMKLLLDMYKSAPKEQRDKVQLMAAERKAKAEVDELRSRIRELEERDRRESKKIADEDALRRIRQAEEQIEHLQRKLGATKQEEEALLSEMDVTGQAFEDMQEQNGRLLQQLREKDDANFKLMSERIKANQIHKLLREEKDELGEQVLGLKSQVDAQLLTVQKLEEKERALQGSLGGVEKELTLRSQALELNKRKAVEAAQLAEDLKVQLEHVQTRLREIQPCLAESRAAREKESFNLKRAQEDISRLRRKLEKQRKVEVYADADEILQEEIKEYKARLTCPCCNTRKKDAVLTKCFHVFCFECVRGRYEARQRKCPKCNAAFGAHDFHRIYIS
# UniProt Q8NCN4: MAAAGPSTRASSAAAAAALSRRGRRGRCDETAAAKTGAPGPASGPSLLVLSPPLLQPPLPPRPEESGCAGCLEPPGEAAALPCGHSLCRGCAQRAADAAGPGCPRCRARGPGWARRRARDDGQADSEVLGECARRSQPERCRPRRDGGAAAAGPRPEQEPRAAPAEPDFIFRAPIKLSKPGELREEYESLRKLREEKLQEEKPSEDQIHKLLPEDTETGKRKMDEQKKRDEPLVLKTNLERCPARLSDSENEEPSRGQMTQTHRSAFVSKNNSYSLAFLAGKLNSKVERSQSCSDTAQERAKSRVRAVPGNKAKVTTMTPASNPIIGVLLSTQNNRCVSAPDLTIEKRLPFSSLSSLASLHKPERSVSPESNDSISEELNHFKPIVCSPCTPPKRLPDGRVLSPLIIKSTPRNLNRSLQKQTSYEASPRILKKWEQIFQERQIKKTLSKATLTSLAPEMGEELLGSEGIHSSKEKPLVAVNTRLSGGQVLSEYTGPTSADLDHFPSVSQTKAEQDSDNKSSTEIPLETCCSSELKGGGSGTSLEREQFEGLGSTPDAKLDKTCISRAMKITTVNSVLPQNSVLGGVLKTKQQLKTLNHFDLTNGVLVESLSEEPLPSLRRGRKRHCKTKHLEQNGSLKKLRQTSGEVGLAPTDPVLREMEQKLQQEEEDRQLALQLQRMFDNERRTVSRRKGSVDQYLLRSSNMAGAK
# UniProt O43148, whole entry, looked up: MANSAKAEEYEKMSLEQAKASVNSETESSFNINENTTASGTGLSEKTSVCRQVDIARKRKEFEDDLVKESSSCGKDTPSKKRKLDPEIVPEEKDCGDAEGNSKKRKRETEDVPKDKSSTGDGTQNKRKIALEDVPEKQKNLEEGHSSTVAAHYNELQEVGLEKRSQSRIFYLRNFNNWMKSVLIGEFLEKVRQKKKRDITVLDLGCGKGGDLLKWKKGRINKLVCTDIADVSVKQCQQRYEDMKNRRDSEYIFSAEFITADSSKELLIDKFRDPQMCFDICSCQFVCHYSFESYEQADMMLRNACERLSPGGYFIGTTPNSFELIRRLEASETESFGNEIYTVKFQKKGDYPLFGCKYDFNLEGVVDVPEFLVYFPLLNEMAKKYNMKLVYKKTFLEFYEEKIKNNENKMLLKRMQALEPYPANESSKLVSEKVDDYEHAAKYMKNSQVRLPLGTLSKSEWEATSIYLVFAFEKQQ
# UniProt Q9H7B2: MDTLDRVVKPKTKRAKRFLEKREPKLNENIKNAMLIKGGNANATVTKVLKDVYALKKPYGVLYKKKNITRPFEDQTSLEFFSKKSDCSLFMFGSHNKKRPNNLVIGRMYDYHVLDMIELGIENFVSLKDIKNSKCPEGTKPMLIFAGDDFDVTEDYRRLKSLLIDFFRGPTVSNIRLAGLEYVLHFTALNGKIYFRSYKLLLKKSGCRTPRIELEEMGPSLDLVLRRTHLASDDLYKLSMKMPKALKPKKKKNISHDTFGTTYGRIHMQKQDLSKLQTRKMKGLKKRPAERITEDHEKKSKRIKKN
# UniProt Q96EP0: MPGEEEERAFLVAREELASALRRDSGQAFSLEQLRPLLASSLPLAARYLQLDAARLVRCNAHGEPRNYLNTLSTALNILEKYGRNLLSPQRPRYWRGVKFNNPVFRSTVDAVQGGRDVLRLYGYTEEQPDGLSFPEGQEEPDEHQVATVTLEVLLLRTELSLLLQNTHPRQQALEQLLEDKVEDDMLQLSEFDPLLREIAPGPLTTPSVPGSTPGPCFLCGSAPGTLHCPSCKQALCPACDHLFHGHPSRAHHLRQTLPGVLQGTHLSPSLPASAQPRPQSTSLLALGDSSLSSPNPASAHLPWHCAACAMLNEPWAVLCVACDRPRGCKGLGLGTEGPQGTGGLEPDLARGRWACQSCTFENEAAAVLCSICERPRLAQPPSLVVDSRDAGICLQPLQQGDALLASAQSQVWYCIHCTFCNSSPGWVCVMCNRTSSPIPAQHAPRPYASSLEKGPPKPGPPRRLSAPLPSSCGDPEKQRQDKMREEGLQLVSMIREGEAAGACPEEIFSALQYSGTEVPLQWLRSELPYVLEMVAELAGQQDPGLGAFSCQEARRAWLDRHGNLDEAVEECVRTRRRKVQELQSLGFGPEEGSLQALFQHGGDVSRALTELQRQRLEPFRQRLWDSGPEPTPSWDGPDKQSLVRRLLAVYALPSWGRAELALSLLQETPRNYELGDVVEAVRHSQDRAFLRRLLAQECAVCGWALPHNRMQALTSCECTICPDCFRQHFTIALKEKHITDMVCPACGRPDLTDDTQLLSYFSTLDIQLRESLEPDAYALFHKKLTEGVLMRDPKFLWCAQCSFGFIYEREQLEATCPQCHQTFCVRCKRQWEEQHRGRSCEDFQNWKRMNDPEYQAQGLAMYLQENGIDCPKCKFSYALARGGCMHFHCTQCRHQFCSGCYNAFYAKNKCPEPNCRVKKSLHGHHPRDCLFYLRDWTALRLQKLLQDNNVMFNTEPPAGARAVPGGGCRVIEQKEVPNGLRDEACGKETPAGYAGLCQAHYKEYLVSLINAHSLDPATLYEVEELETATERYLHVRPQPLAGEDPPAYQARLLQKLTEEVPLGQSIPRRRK
# UniProt O60942: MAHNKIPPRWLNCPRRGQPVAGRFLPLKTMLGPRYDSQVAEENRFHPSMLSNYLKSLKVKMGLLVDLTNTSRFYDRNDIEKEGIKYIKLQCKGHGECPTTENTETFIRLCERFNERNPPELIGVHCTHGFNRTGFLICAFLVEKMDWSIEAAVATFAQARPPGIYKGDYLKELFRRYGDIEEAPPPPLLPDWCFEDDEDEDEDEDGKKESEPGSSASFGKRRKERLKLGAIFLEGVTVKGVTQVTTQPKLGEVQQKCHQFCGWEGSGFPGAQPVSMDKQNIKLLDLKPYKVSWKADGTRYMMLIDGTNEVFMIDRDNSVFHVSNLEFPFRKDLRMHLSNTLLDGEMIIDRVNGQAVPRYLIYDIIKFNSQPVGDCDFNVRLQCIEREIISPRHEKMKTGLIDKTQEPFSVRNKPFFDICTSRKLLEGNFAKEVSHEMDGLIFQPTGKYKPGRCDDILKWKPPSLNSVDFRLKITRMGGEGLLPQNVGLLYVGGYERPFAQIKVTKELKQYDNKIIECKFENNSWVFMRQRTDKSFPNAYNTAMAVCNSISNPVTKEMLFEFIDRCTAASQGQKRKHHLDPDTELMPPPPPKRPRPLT
# UniProt Q8ND24: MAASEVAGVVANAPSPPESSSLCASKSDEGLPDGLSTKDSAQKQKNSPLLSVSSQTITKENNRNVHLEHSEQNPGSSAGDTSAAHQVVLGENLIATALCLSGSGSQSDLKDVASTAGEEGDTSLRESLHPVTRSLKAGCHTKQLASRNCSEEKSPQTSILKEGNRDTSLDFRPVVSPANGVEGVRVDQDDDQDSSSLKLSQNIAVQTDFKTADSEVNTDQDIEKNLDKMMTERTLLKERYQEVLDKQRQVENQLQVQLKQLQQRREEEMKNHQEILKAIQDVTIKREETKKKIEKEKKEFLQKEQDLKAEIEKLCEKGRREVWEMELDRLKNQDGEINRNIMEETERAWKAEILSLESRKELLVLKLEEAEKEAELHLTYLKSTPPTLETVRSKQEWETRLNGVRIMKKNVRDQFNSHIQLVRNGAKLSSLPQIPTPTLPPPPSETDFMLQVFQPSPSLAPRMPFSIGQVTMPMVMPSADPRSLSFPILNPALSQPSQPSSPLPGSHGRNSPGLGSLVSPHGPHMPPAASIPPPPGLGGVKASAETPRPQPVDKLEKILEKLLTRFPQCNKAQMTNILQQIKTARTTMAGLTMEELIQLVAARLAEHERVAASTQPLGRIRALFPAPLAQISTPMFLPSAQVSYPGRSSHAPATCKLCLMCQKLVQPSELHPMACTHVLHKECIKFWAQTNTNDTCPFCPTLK
# UniProt Q9NTX7: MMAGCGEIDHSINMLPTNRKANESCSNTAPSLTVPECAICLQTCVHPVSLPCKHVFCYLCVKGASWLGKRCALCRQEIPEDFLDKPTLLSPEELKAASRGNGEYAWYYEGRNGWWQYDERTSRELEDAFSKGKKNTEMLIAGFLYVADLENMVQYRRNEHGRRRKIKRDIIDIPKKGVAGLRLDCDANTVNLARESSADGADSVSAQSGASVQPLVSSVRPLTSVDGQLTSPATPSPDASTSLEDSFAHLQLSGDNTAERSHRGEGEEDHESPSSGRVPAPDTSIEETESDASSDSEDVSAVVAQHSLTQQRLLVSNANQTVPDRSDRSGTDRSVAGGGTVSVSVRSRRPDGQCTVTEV
# UniProt Q969K3: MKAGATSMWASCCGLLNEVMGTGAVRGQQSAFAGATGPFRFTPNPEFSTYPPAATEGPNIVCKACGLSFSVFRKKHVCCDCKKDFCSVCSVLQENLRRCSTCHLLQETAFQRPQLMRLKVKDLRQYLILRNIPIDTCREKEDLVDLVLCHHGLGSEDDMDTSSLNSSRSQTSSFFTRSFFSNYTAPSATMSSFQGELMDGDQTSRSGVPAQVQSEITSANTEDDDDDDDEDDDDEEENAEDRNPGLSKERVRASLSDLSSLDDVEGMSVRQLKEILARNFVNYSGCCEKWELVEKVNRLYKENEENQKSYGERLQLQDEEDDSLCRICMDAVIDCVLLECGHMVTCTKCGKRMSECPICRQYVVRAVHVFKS
# UniProt P04843: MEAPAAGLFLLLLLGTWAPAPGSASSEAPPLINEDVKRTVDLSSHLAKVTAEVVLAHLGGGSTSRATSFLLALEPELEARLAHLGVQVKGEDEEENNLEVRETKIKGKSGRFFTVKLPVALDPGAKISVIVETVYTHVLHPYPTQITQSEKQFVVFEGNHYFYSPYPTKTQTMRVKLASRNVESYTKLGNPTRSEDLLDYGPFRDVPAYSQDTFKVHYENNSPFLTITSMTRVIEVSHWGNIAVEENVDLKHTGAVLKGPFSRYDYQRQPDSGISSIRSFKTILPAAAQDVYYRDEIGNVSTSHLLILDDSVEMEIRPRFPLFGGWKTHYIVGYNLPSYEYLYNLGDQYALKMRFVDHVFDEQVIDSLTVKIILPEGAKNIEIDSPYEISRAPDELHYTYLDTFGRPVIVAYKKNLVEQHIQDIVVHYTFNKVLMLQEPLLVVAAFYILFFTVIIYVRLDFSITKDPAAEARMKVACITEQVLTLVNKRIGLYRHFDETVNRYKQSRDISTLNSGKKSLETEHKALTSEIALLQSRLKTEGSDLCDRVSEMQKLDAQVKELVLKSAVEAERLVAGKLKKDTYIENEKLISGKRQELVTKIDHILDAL
# UniProt Q99496: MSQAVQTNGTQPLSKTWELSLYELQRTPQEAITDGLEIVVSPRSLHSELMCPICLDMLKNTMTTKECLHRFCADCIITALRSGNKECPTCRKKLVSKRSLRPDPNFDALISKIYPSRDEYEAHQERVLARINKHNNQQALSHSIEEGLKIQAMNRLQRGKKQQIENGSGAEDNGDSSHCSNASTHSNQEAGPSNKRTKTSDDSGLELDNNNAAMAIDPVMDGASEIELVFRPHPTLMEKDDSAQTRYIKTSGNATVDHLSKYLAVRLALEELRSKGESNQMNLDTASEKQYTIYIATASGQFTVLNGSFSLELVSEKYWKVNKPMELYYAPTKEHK
# The other results are listed elsewhere or left out.
# Compound: CC1Cc2ccccc2N1C(=O)C1CCCN(C1)C(=O)CCl (mixture of isomers) [TRIM25 ligand 11 (diastereomer mixture)]
# Test: probe-labelled cysteine peptide fold change vs DMSO (competition) (log2 fold change); higher = less target engagement (more negative = stronger competition)
# Conditions: THP-1, incubation time: 4 h
# 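Note: competitive chemoproteomic profiling in live THP-1 cells with an iodoacetamide desthiobiotin (IA-DTB) probe, comparing probe-labelled peptide intensities in compound-treated cells against DMSO-treated controls.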
Target,probe-labelled cysteine peptide fold change (10 µM),probe-labelled cysteine peptide fold change (50 µM)
RNF40_O75150_986_CNAAFGAHDFHR (UniProt O75150),0.126,0.245
RNF169_Q8NCN4_337_CVSAPDLTIEK (UniProt Q8NCN4),-0.0328,-0.0343
RNH1_P13489_142_TLPTLQELHLSDNLLGDAGLQLLCEGLLDPQCR (UniProt P13489),-0.142,-0.254
RNF220_Q5VTB9-3_115_HVEHCLSK (UniProt Q5VTB9),-0.162,-0.226
RPL7_P18124_186_YGIICMEDLIHEIYTVGK (UniProt P18124),-0.0313,-0.0329
RNH1_P13489_75+85_SNELGDVGVHCVLQGLQTPSCKIQK (UniProt P13489),-0.273,0.0124
RNMT_O43148_206_DITVLDLGCGK (UniProt O43148),0.00427,0.0451
RNH1_P13489_380+387_VLWLADCDVSDSSCSSLAATLLANHSLR (UniProt P13489),-0.0973,-0.185
RPL11_P62913_25_LCLNICVGESGDR (UniProt P62913),-0.196,-0.166
RNF40_O75150_971_CFHVFCFECVR (UniProt O75150),-0.278,0.257
RNF20_Q5VTR2_960_CNAAFGANDFHR (UniProt Q5VTR2),0.228,0.046
RPL27A_P46776_144_SVGGACVLVA (UniProt P46776),-0.135,0.0419
RNH1_P13489_75+85_SNELGDVGVHCVLQGLQTPSCK (UniProt P13489),0.0255,-0.0212
RPL7L1_Q6DKI1_207_HFQEISWFLCPFHLSVAR (UniProt Q6DKI1),0.094,-0.113
RPL30_P62888_92_VCTLAIIDPGDSDIIR (UniProt P62888),0.00168,0.066
RPL37A_P61513_60_AVGIWHCGSCMK (UniProt P61513),0.0173,0.0297
RPF2_Q9H7B2_87_KSDCSLFMFGSHNK (UniProt Q9H7B2),-0.0519,-0.0581
RNF213_Q63HN8_2918_GICSSDILVQDR (UniProt Q63HN8),0.0178,0.0499
RNF31_Q96EP0_901_HQFCSGCYNAFYAK (UniProt Q96EP0),0.129,0.00208
RNH1_P13489_323_SCSFTAACCSHFSSVLAQNR (UniProt P13489),0.27,-0.268

Target,probe-labelled cysteine peptide fold change (10 µM),probe-labelled cysteine peptide fold change (50 µM)
RNF31_Q96EP0_986_EVPNGLRDEACGK (UniProt Q96EP0),0.00883,-0.0335
RPL12_P30050_141_EILGTAQSVGCNVDGR (UniProt P30050),0.0262,0.0287
RNF31_Q96EP0_473_LSAPLPSSCGDPEK (UniProt Q96EP0),-0.0484,-0.11
RPL30_P62888_52_LVILANNCPALR (UniProt P62888),0.0216,0.142
RNGTT_O60942_453_CDDILK (UniProt O60942),-0.0425,-0.155
RNF214_Q8ND24_696_FWAQTNTNDTCPFCPTLK (UniProt Q8ND24),-0.00145,0.189
RNMT_O43148_73_ESSSCGK (UniProt O43148),-0.135,-0.174
RNF146_Q9NTX7-2_4_AGCGEIDHSINMLPTNR (UniProt Q9NTX7),-0.0562,-0.145
RPF2_Q9H7B2_135_CPEGTKPMLIFAGDDFDVTEDYRR (UniProt Q9H7B2),0.0662,-0.181
RNF213_Q63HN8_1064_LCGTDEK (UniProt Q63HN8),0.171,0.0227
RNF34_Q969K3_340_ICMDAVIDCVLLECGHMVTCTK (UniProt Q969K3),-0.049,-0.244
ROCK2_O75116_1315_KEEIIAPCK (UniProt O75116),0.0454,0.0389
RPN1_P04843_477_VACITEQVLTLVNKR (UniProt P04843),-0.151,-0.297
RNF2_Q99496_75_FCADCIITALR (UniProt Q99496),-0.0444,0.133
RPL10_P27635_49_AKVDEFPLCGHMVSDEYEQLSSEALEAAR (UniProt P27635),-0.275,-0.368
RPAP3_Q9H6T3_190_FAVAESDCNLAVALNR (UniProt Q9H6T3),-0.116,0.103
RPL4_P36578_250_FCIWTESAFR (UniProt P36578),0.0487,0.1
RNH1_P13489_102_LSLQNCCLTGAGCGVLSSTLR (UniProt P13489),0.0616,0.309
RPL3_P39023_336_GCVVGTK (UniProt P39023),0.029,0.154

# Complete entries from above.
# RNF31_Q96EP0_986_EVPNGLRDEACGK (UniProt Q96EP0) in the list: probe-labelled cysteine peptide fold change (10 µM): 0.00883; probe-labelled cysteine peptide fold change (50 µM): -0.0335
# RNMT_O43148_73_ESSSCGK (UniProt O43148) in the list: probe-labelled cysteine peptide fold change (10 µM): -0.135; probe-labelled cysteine peptide fold change (50 µM): -0.174
